No constants are given. Whether binding was seen depends on the method and setting. Binding seen in cells or lysates may run through a third protein. Binding can be weak; no strength is given.
Target: His-AR-NTD (human)
Assay: co-IP; HEK293T cells transfected with His-AR (full length), His-AR-NTD, His-AR-DBD, His-AR-LBD or empty vector, lysed and precipitated by the His-tag or with anti-RACGAP1 antibody, then blotted (the legend calls it a pull-down)

B1: RACGAP1 in HEK293T cell lysate (protein, UniProt Q9H0H5 1-632)
chain: MDTMMLNVRNLFEQLVRRVEILSEGNEVQFIQLAKDFEDFRKKWQRTDHELGKYKDLLMKAETERSALDVKLKHARNQVDVEIKRRQRAEADCEKLERQIQLIREMLMCDTSGSIQLSEEQKSALAFLNRGQPSSSNAGNKRLSTIDESGSILSDISFDKTDESLDWDSSLVKTFKLKKREKRRSTSRQFVDGPPGPVKKTRSIGSAVDQGNESIVAKTTVTVPNDGGPIEAVSTIETVPYWTRSRRKTGTLQPWNSDSTLNSRQLEPRTETDSVGTPQSNGGMRLHDFVSKTVIKPESCVPCGKRIKFGKLSLKCRDCRVVSHPECRDRCPLPCIPTLIGTPVKIGEGMLADFVSQTSPMIPSIVVHCVNEIEQRGLTETGLYRISGCDRTVKELKEKFLRVKTVPLLSKVDDIHAICSLLKDFLRNLKEPLLTFRLNRAFMEAAEITDEDNSIAAMYQAVGELPQANRDTLAFLMIHLQRVAQSPHTKMDVANLAKVFGPTIVAHAVPNPDPVTMLQDIKRQPKVVERLLSLPLEYWSQFMMVEQENIDPLHVIENSNAFSTPQTPDIKVSLLGPVTTPEHQLLKTPSSSSLSQRVRSTLTKNTPRFGSKSKSATNLGRQGNFFASPMLK
- binding: binds
